Test results reported in patent US20230416726A1 (University of Washington, published 2023).
These are yes or no findings as the source states them, for the method shown. Some results given as binding are weak or reduced against the parent protein; the word gives no strength. Each block holds one binder with its values, some of them ahead of it.

By UniProt entry, the sequences of proteins in these tests, tags left out. Residues count along the entry.
UniProt Q9NZQ7, residues 19-239: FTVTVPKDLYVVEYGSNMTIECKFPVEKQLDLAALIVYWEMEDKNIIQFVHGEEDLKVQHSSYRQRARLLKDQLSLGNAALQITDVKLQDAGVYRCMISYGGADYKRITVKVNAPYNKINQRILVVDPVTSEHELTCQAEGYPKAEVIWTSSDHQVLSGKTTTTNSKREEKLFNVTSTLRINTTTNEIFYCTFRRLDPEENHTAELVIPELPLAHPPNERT
UniProt P04629, residues 36-382: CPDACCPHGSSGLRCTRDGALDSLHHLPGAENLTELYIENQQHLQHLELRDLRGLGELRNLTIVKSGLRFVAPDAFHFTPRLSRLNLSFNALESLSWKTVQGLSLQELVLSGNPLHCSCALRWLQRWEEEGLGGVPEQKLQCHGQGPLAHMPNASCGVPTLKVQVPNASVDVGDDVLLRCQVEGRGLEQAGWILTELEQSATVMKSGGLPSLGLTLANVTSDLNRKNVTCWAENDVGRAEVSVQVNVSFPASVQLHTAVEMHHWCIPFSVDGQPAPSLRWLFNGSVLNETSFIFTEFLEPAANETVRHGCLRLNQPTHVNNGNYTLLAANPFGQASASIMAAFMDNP

How the values were obtained:
[1] = molecular target: programmed cell death ligand 1 (PD-L1) (UniProt Q9NZQ7); test: BLI (FIG. 3A-C)
[2] = molecular target: programmed cell death ligand 1 (PD-L1) (UniProt Q9NZQ7); test: BLI, max binding signal versus PD-L1 concentration
[3] = molecular target: programmed cell death ligand 1 (PD-L1) (UniProt Q9NZQ7); test: Yeast display flow cytometry of a clonal population; binding signal PE-H normalized to expression FITC-H
[4] = molecular target: Tropomyosin receptor kinase A (TrkA) (UniProt P04629); test: BLI, max binding signal versus concentration
[5] = molecular target: Tropomyosin receptor kinase A (TrkA) (UniProt P04629); test: BLI, biotinylated TrkA on streptavidin tips, binder in solution, max signal versus binder concentration
[6] = molecular target: Tropomyosin receptor kinase A (TrkA) (UniProt P04629); test: BLI, biotinylated TrkA on streptavidin tips

B1: pdl1_inp_1 (purified from E. coli) (designed binder)
chain: DLEEFFEECLKEAEEVRKEVLEGKARIQIKESVRKEDPEGGTYVCGVISLGPKGGKFHVVFHKEDPEGKEETLARFEFKVEGGKVELLELKSKDPELKKLAEKYAEKLLE
notes: Expressed as a monomer; Tested by BLI; not shown: C-terminal SNAC tag and 6xHis tag from the modified pET29b+ vector
binding [1]: binds
binding [2]: binds

B2: pdl1_inp_1 displayed on yeast (designed binder, not shown: large carriers)
chain: DLEEFFEECLKEAEEVRKEVLEGKARIQIKESVRKEDPEGGTYVCGVISLGPKGGKFHVVFHKEDPEGKEETLARFEFKVEGGKVELLELKSKDPELKKLAEKYAEKLLE
binding [3]: binds

binding [4]: binds
binding [5]: binds
binding [6]: binds
B3: trkA_56 (designed binder, not shown: small tags and cut ends)
chain: DLDIIRRAAAELKRYEEKAEEFKEHLFKQVVRLIVTPEYQANPEKLEEVIQKIKDLEEEVEKKKEELFKEVVRAIVTGDHALAERVIERARELIEEIEKKKKEISEEVELG

binding [5]: binds
B4: trkA_hal_1 F27R (designed binder)
single chain: DLDIIRRAAAELKRYEEKAEEFKEHLRKQVVRLIVTPEYQANPEKLEEVIQKIKDLEEEVEKKKEELFKEVVRAIVTGDHALAERVIERARELIEEIEKKKKEISEEVELG

binding [5]: binds
B5: trkA_hal_1 F68R (designed binder)
single chain: DLDIIRRAAAELKRYEEKAEEFKEHLFKQVVRLIVTPEYQANPEKLEEVIQKIKDLEEEVEKKKEELRKEVVRAIVTGDHALAERVIERARELIEEIEKKKKEISEEVELG
